Measured values from the supplement of paper PMC10735217.
Where a name gives a salt, the structure may show the parent alone. Some of the results follow. This data set is noisy: repeats of one test often differ as much as different tests do.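 The human kidney-derived cells carry a stably integrated construct of eight TEAD-binding elements driving luciferase, read by luminescence in a drug-repurposing library screen. A compound counts as a hit when its signal is more than five robust Z scores above the plate mean.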

Tested on: HEK293A TEAD-LUC reporter
Test: TEAD-luciferase reporter activity (YAP activation), robust Z score vs plate; higher = stronger YAP/TEAD activation
Settings: 24 h

Compound | TEAD-luciferase reporter activity (compound concentration: 200 nM) | TEAD-luciferase reporter activity (compound concentration: 2 uM) | TEAD-luciferase reporter activity (compound concentration: 10 uM)
N[C@@H](CSCC(=O)N1CC([N+](=O)[O-])([N+](=O)[O-])C1)C(=O)NCC(=O)O | inactive: -0.507 | inactive: 0.14 | inactive: -0.299
O=C(NCCN1CCC(n2c(O)nc3cc(Cl)ccc32)CC1)c1ccc(F)cc1 [Halopemide] | inactive: -1.97 | inactive: -1.43 | inactive: -1.45
NC(=O)[C@@H]1CCCN1C(=O)[C@H](Cc1c[nH]cn1)NC(=O)c1cc(=O)[nH]c(=O)[nH]1 [orotirelin] | inactive: 1.76 | inactive: 1.36 | inactive: -0.726
COc1ccc(CNC(=O)C2CCN(C(=O)c3ccc(-c4ccccc4OC)cc3)CC2)cc1 | inactive: -1.71 |  | inactive: -1.98
CCCCN(Cc1ccccc1)Cc1ccco1 | inactive: -1.89 | inactive: 1.84 | inactive: 1.08
Cc1onc(NS(=O)(=O)c2ccc(N)cc2)c1C [Sulfatroxazole] | inactive: -0.718 | inactive: 2.51 | inactive: -1.6
C[C@@H]1O[C@@H](O[C@H]2C(=O)c3c(O)cc(O)cc3O[C@@H]2c2ccc(O)c(O)c2)[C@H](O)[C@H](O)[C@H]1O [Astilbin] | inactive: -1.13 | inactive: -0.874 | inactive: -0.0397
CCCCOc1cc(C(N)=O)ccc1OC | inactive: -1.31 | inactive: 0.0885 | inactive: 1.52
CN(C)c1cc(NC(=O)CNC(C)(C)C)c(O)c2c1C[C@H]1C[C@H]3[C@H](N(C)C)C(O)=C(C(N)=O)C(=O)[C@@]3(O)C(O)=C1C2=O [Tigecycline] | inactive: -1.9 | inactive: -1.03 | inactive: 2.32
Cc1ccc2c(c1)c(-c1ccccc1)nn2CCCN(C)C | inactive: 0.686 | inactive: -0.0747 | active: 5.86
CC(C)OC(=O)CNc1cccc(CN(Cc2ccc(-n3cccn3)cc2)S(=O)(=O)c2cccnc2)n1 | inactive: 2.87 | inactive: -0.401 | inactive: 0.252
CC1(C)SCCN(S(=O)(=O)c2ccc(OCC#CCO)cc2)[C@H]1C(=O)NO [Apratastat] | inactive: -2.17 | inactive: -1.28 | inactive: 4.28
CCc1c2c(nc3ccc(OCCCNC(=O)CNC(=O)CNC(=O)CN)cc13)-c1cc3c(c(=O)n1C2)COC(=O)[C@@]3(O)CC | inactive: 0.763 | inactive: -0.111 | inactive: -1.31
COc1ccc2[nH]c(C)c(CC(=O)NO)c2c1 | inactive: 0.229 | inactive: -0.407 | inactive: 1.97
O=C(NOC[C@H](O)CO)c1ccc(F)c(F)c1Nc1ccc(I)cc1F | inactive: -1.27 | inactive: -0.788 | inactive: -0.567
CCCC(=O)O[C@]1(C(=O)CC)CC[C@H]2[C@@H]3CCC4=CC(=O)CCC4(C)[C@H]3[C@@H](O)CC21C (some centres undefined) | inactive: 0.301 | inactive: 2.52 | inactive: 2.62
CN(C)C(=O)C(CCN1CCC(O)(c2ccc(Cl)cc2)CC1)(c1ccccc1)c1ccccc1 | inactive: -1.46 |  | inactive: -0.44
CC(=O)NCCn1c(C)cc(C=O)c1C [Aloracetam] | inactive: -0.53 | inactive: -1.23 | inactive: -0.326
CO/N=C(/OC(=O)c1ccc(C(=O)C(C)(C)C)cc1)c1ccc(C(=O)C(C)(C)C)cc1 | inactive: 0.197 | inactive: 3.22 | inactive: 0.147

Record cards, from the list above. Order of values: TEAD-luciferase reporter activity (compound concentration: 200 nM) | TEAD-luciferase reporter activity (compound concentration: 2 uM) | TEAD-luciferase reporter activity (compound concentration: 10 uM)
CC(C)OC(=O)CNc1cccc(CN(Cc2ccc(-n3cccn3)cc2)S(=O)(=O)c2cccnc2)n1 in the list: inactive: 2.87 | inactive: -0.401 | inactive: 0.252
O=C(NOC[C@H](O)CO)c1ccc(F)c(F)c1Nc1ccc(I)cc1F in the list: inactive: -1.27 | inactive: -0.788 | inactive: -0.567

Copied from the list:
NC(=O)[C@@H]1CCCN1C(=O)[C@H](Cc1c[nH]cn1)NC(=O)c1cc(=O)[nH]c(=O)[nH]1 [orotirelin] – TEAD-luciferase reporter activity (compound concentration: 10 uM): inactive: -0.726
Cc1ccc2c(c1)c(-c1ccccc1)nn2CCCN(C)C – TEAD-luciferase reporter activity (compound concentration: 200 nM): inactive: 0.686

(list continues)

Compound | TEAD-luciferase reporter activity (compound concentration: 200 nM) | TEAD-luciferase reporter activity (compound concentration: 2 uM) | TEAD-luciferase reporter activity (compound concentration: 10 uM)
CCNC(=O)c1cnc2n1CCc1ccccc1C21CCNCC1 | inactive: 0.258 | inactive: -0.487 | inactive: -0.407
O=C(O)c1cc(=O)c2cc(OCC(O)COc3cccc4oc(C(=O)O)cc(=O)c34)ccc2o1 (centres undefined) | inactive: -0.467 | inactive: -0.947 | inactive: 1.19
Nc1nc(N2CCN(C(=O)c3ccc(OCc4ccccc4)cc3)CC2)nc2ccccc12 | inactive: -2.05 | inactive: 0.859 | inactive: 3.34
CNc1nc(Nc2ccc(-n3cnc(C)n3)c(OC)c2)nc2c1CC[C@H]2c1ccc(F)cc1 | inactive: -1.46 | inactive: 0.592 | inactive: -0.821
c1ccc(/N=C(\NC2=NCCCCCC2)N2CCOCC2)cc1 | inactive: 1.27 | inactive: -1.11 | inactive: 1.56
CC[C@H](C)[C@@H](NC(=O)[C@@H](Cc1ccc(O)cc1)NC(=O)[C@@H](N)C(C)C)C(=O)N[C@@H](Cc1cnc[nH]1)C(=O)N1CCC[C@@H]1C(=O)N[C@@H](Cc1ccccc1)C(=O)O | inactive: -0.609 | inactive: -1.16 | active: 5.18
NCC(=O)O [Glycine] |  | inactive: -0.187 | 
NCC(=O)O | inactive: 2.4 |  | inactive: -1.62
COc1ccccc1C(C(=O)O)=C(c1ccccc1)c1ccccc1 | inactive: 2.81 | inactive: -0.235 | inactive: 1.26
CC(=C/C=C/C(C)=C/C(=O)O)/C=C1\CCCc2ccccc21 | inactive: -0.773 | inactive: 0.172 | inactive: -1.01
COc1cc(OC)c2c(C)c(C(=O)c3ccc(Br)cc3)oc2c1 | inactive: -0.977 | inactive: 1.27 | inactive: -0.52
CC(C)(N)[C@H](NC(=O)c1ccc(C#CC#C[C@H]2C[C@@H]2CO)cc1)C(=O)NO | inactive: -1.44 | inactive: -0.577 | inactive: -0.396
CCN(CC)CCOC(=O)Cc1cccc2c(=O)cc(-c3ccccc3)oc12 | inactive: 0.633 | inactive: -0.65 | inactive: 0.965
Cc1cc(N2CCSCC2)c(C#N)c(C)n1 | inactive: -1.64 | inactive: 3.46 | inactive: 0.898
Cc1c(F)c(N2CC[C@H](N)C2)nc2c1c(=O)c(C(=O)O)cn2-c1ccc(F)cc1F | inactive: -0.0342 | inactive: 2.25 | inactive: 0.417
O=C(O)c1ccc2c(c1)nc(-c1ccc(OCc3cc(N4CCCC4=O)ccc3-c3ccc(Cl)cc3)cc1F)n2C1CCCCC1 | inactive: 0.756 | inactive: -1.72 | inactive: -0.959
COC(=O)N[C@H](C(=O)N1CCC[C@H]1C(=O)N[C@H](C(=O)C(F)(F)F)C(C)C)C(C)C | inactive: -0.345 | inactive: 1.41 | inactive: 1.25
N#Cc1ccccc1CN1CCCCC12Cc1ccccc1CNC2=O (centres undefined) | inactive: -2.02 |  | inactive: 1.1
COC(=O)c1cccnc1N1CCN(CCCC(c2ccc(F)cc2)c2ccc(F)cc2)CC1 | inactive: -0.577 | inactive: -1.11 | inactive: -0.15

Compound | TEAD-luciferase reporter activity (compound concentration: 200 nM) | TEAD-luciferase reporter activity (compound concentration: 2 uM) | TEAD-luciferase reporter activity (compound concentration: 10 uM)
COc1ccc(CCNCC(O)COc2cccc(C)c2)cc1OC (centres undefined) [bevantolol] |  | inactive: 0.964 | 
COc1ccc(CCNCC(O)COc2cccc(C)c2)cc1OC (centres undefined) [Bevantolol Hydrochloride] | inactive: -0.968 | inactive: -0.717 | inactive: -0.531
C[C@]12C=CC(=O)C=C1C(Cl)=C[C@@H]1[C@@H]2[C@@H](O)C[C@@]2(C)[C@H]1CC[C@]2(O)C(=O)CO | inactive: 0.597 | inactive: 0.411 | inactive: 1.12
C=CC(=O)O [Acrylic Acid] | inactive: -1.88 | inactive: -0.196 | inactive: 0.241
Oc1ccc2c(c1)OC[C@@H](c1ccccc1)[C@H]2c1ccc(OCCN2CCCC2)cc1 | inactive: 0.52 | inactive: 0.639 | inactive: 0.776
C#C[C@]1(O)CC[C@H]2[C@@H]3[C@H](C)CC4=C(CCC(=O)C4)[C@H]3CC[C@@]21C | inactive: -0.00345 |  | inactive: 1.78
C#C[C@]1(O)CC[C@H]2[C@@H]3[C@H](C)CC4=C(CCC(=O)C4)[C@H]3CC[C@@]21C [tibolone] |  | inactive: -0.000493 | 
CC(C)c1cc(C(=O)N2Cc3ccc(CN4CCN(C)CC4)cc3C2)c(O)cc1O | inactive: 1.85 | inactive: -1.3 | inactive: -3.23
O=C([C@@H]1CSC(c2cccnc2)N1)N1CCN(CCCOc2c(-c3ccccc3)oc3ccccc3c2=O)CC1 (some centres undefined) | inactive: -0.443 | inactive: 0.113 | inactive: 0.0952
CCCCNc1nc(NC)nc(Cl)c1SC | inactive: 4.23 | inactive: -0.14 | inactive: 1.76
CCOCCn1nc(C(N)=O)c2nc(N(C)CC)nc(Nc3cc(C)ccn3)c21 | inactive: -0.711 | inactive: -0.393 | inactive: 0.442
CC1(C)N=C(N)N=C(N)N1OCCCOc1cc(Cl)c(Cl)cc1Cl | inactive: -0.626 | inactive: -0.772 | inactive: 0.0803
CN1C(=O)CN2CCc3ccccc3C2c2cc(Cl)ccc21 (centres undefined) | inactive: -0.855 | inactive: -0.267 | inactive: 1.93
COCCCOc1ccnc(CSc2nc3ccccc3[nH]2)c1C [Rabeprazole-thioether] | inactive: -0.95 | inactive: 2 | inactive: 1.76
COc1cc(OC)c(/C=C/S(=O)(=O)Cc2ccc(OC)c(NCC(=O)O)c2)c(OC)c1 [Rigosertib sodium] | inactive: 0.631 | inactive: 2.52 | inactive: 4.22
CC1=C(C(=O)OCCN2C(=O)c3ccccc3S2(=O)=O)C(c2ccccc2[N+](=O)[O-])C(C(=O)OC(CN2CCOCC2)CN2CCOCC2)=C(C)N1 (centres undefined) | inactive: -1.74 | inactive: -0.994 | inactive: -0.475
CN1CCC[C@@H]1CCO[C@](C)(c1ccccc1)c1ccc(Cl)cc1 [Clemastine fumarate] | inactive: 1.56 |  | active: 5.36
CN1CCC[C@@H]1CCO[C@](C)(c1ccccc1)c1ccc(Cl)cc1 [clemastine fumarate] |  | inactive: -2.02 | 
